Experimental data published in PMC8998833.
Results are given in words; binding and its absence hold for the method and conditions named. Binding seen in cells or lysates may run through a third protein.

By UniProt entry, the sequences of proteins in these tests, tags left out. Where a name states a change or a piece, a line headed by the entry shows the natural chain unless it says otherwise.
UniProt Q9QUM0: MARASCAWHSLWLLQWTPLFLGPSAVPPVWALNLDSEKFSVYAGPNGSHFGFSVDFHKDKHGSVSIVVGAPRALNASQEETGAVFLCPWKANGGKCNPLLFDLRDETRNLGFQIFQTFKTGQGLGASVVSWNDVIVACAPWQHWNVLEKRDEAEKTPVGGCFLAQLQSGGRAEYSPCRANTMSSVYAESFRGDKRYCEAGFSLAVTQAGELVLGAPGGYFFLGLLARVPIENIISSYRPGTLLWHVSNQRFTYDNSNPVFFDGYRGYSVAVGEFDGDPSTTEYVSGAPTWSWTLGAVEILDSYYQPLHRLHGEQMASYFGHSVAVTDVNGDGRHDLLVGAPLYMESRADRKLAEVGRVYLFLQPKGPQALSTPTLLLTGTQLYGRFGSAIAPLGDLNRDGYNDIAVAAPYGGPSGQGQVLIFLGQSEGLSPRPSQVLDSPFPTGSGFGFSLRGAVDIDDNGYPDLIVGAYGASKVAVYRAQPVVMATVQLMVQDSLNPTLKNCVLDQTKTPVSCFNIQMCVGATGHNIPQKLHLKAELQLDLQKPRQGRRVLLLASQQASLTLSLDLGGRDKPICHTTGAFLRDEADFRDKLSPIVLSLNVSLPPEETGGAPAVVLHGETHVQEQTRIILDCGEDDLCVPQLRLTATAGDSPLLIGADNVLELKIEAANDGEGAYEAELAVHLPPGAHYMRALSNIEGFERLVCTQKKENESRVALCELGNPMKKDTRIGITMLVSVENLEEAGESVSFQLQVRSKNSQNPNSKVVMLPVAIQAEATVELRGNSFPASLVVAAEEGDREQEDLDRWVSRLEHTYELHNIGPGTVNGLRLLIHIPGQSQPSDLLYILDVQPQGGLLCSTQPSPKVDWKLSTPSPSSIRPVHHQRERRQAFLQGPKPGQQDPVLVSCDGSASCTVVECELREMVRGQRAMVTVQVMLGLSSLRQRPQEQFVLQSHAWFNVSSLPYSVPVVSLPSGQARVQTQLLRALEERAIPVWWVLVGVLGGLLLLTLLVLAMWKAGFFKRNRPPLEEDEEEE
UniProt O54890: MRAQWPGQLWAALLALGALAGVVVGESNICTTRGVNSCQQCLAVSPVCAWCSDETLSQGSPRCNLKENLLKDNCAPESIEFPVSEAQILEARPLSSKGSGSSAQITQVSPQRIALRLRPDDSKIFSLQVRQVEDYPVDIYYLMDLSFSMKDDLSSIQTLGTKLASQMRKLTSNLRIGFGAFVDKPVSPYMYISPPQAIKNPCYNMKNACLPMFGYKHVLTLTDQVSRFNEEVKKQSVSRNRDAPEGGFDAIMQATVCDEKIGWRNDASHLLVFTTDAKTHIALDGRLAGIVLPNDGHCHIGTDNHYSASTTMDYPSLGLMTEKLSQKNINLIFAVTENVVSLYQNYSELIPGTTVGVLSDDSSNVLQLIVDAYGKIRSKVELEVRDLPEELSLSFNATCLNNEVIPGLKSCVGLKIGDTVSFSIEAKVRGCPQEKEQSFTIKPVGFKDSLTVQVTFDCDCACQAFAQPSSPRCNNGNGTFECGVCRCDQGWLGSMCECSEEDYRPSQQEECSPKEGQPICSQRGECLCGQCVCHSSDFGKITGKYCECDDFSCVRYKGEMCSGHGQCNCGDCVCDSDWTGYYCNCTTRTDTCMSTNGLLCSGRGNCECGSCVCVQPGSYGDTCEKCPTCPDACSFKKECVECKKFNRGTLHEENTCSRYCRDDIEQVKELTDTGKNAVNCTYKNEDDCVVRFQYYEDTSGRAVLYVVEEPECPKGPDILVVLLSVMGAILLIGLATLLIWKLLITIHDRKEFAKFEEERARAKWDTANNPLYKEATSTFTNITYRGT

Target: integrin αIIbβ3 (mouse (endogenous in murine platelets)) (UniProt Q9QUM0+O54890)
Assay: FRET or BRET; flow cytometric FRET, negative control on murine washed platelets; anti-integrin αIIbβ3 (MWReg30, AF488 donor) and anti-GPIX (p0p6, AF546 acceptor)

binding: no binding
B1: GPIX (receptor, UniProt O88186 17-177)
chain: TQACPRPCTCQSLETMGLKVNCEGQGLTALPVIPAHTRQLLLANNSLRSVPPGAFDHLPQLWDLDVTHNPWHCDCSLTYLRLWLEDHMPEALMHVYCASPDLATRRPLGQLTGYELGSCGWKLPPSWAYPGVWWDVSLVAVAVLGLILLAGLLNTFTESRN
